Measured values from PMC10427353.
These are yes or no findings as the source states them, for the method shown. In cells and extracts the contact can be indirect. Some binding calls cover weakened binding; strength is not graded here. For some assays here: Where a sequence is shown, tags or fusion partners need not be part of it.

The chains behind the UniProt entries cited, without tags or fusion partners.
UniProt P42227: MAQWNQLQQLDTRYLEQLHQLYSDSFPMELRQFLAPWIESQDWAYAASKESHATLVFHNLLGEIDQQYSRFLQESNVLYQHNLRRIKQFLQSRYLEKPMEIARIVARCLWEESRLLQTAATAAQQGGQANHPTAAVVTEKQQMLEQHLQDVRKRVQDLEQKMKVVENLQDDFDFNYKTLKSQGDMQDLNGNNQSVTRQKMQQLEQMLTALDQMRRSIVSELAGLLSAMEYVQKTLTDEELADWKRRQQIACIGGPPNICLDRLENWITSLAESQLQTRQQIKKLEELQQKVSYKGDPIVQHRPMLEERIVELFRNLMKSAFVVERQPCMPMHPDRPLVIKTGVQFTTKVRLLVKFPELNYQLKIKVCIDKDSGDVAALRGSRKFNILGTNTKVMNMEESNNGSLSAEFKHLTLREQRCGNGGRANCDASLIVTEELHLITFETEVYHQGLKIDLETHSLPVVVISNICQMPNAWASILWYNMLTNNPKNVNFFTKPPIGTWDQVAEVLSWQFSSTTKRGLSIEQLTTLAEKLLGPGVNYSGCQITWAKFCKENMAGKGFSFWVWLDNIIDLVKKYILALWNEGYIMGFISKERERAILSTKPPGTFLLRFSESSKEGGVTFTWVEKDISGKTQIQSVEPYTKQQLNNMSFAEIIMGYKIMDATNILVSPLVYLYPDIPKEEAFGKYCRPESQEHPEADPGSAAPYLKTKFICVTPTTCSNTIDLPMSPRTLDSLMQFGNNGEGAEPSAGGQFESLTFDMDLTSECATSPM

B1: Male‐specific lethal 1 (MSL1) (protein, UniProt Q6PDM1 1-616)
chain: MTMRSAVFKAAAAPAGGNPEQRLDYERAAALGGPEDESGAAEAHFLPRHRKLKEPGPPLASSQGGSPSPSPAGCGGGKGRGLLLPAGAAPGQQEESWGGSVPLPCPPPATKQAGIGGEPVAAGAGCSPRPKYQAVLPIQTGSIVVAAAKEPTPWAGDKGGAAPPAATASDPAGPPPLPLPGPPPLAPTATAGTLAASEGRWKSIRKSPLGGGGGSGASSQAACLKQILLLQLDLIEQQQQQLQAKEKEIEELKSERDTLLARIERMERRMQLVKRDNEKERHKLLQGYEPEEREEAELSEKIKLERQPELCETSQALPSKPFSCGRSGKGHKRKTPFGNTERKTPVKKLAPEFSKVKTKTPKHSPIKEEPCGSISETVCKRELRSQETPEKPRSSVDTPPRLSTPQKGPSTHPKEKAFSSEMEDLPYLSTTEMYLCRWHQPPPSPLPLRESSPKKEETVARCLMPSSVAGETSVLAVPSWRDHSVEPLRDPNPSDILENLDDSVFSKRHAKLELDEKRRKRWDIQRIREQRILQRLQLRMYKKKGIQESEPEVTSFFPEPDDVESLLITPFLPVVAFGRPLPKLAPQNFELPWLDERSRCRLEIQKKHTPHRTCRK
B2: Myc‐MSL1 (protein, UniProt Q6PDM1 1-616)
chain: B1 chain

Legend:
[1] = target: Signal transducer and activator of transcription 3 (STAT3) (mouse (endogenous in liver tissue)) (UniProt P42227); assay: co-IP; endogenous proteins in liver tissue lysates of WT mice; indicated antibody with protein A/G magnetic beads at 4 °C overnight, immunoblot; which protein was precipitated is not told
Flag‐STAT3 (mouse) = Flag‐STAT3 (mouse) (UniProt P42227); assay: co-IP; HEK293T cells transfected with Myc‐MSL1 with or without Flag‐STAT3 or Flag‐H4 for 24 h; for STAT3 without or with 10 ng mL^-1 IL‐6 for 30 min; indicated antibody with protein A/G magnetic beads at 4 °C overnight, immunoblot

Binder	binding [1]	binding (Flag‐STAT3 (mouse))
B1	binds	
B2		binds
